Data reported in the supplement of paper PMC6078165.

Tested on: Hs578T
Assay: relative JC-1 red fluorescence (viability) vs pre-drug, coculture with fibroblast (fraction); higher = more viable cancer cells
Protocol: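 JC-1 labelled TNBC cells cocultured 1:1 (1,500 cells each) with CellTrace Violet stained primary or stromal fibroblasts in 384-well plates in FluoroBrite medium, treated with one of 42 anticancer drugs at 0.1, 1, 10 or 100 uM. JC-1 red fluorescence (mitochondrial integrity in cancer cells only) was read by plate reader every 8 h for 72 h. Values are normalised to each well's pre-drug value. The stock of one drug was tenfold lower, so its dose labels may be too high.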

CC(=O)c1c(C)c2cnc(Nc3ccc(N4CCNCC4)cn3)nc2n(C2CCCC2)c1=O [Palbociclib]
relative JC-1 red fluorescence
Conditions | 8 h | 16 h | 24 h | 32 h | 40 h | 48 h | 56 h | 64 h | 72 h
10 µM | 0.938 ± 0.044 | 0.91 ± 0.051 | 0.929 ± 0.038 | 0.919 ± 0.023 | 0.883 ± 0.012 | 0.8649 ± 0.0042 | 0.867 ± 0.021 | 0.819 ± 0.016 | 0.809 ± 0.027
100 µM | 0.838 ± 0.041 | 0.667 ± 0.054 | 0.584 ± 0.092 | 0.535 ± 0.096 | 0.476 ± 0.08 | 0.436 ± 0.063 | 0.428 ± 0.062 | 0.401 ± 0.062 | 0.382 ± 0.059

relative JC-1 red fluorescence
Conditions | 8 h | 16 h | 24 h | 32 h | 40 h | 48 h | 56 h | 64 h | 72 h
10 µM, coculture fibroblast: C12385 | 0.8849 ± 0.0018 | 0.85174 ± 0.00054 | 0.8277 ± 0.0053 | 0.824 ± 0.035 | 0.801 ± 0.036 | 0.788 ± 0.033 | 0.78 ± 0.027 | 0.771 ± 0.02 | 0.762 ± 0.03
10 µM, coculture fibroblast: H6013 | 0.88 ± 0.01 | 0.889 ± 0.027 | 0.8031 ± 0.0065 | 0.834 ± 0.074 | 0.901 ± 0.017 | 0.836 ± 0.022 | 0.798 ± 0.078 | 0.92 ± 0.022 | 0.821 ± 0.13
10 µM, coculture fibroblast: H6019 | 0.835 ± 0.028 | 0.833 ± 0.016 | 0.855 ± 0.02 | 0.8255 ± 0.0081 | 0.8287 ± 0.0037 | 0.821 ± 0.017 | 0.792 ± 0.018 | 0.774 ± 0.018 | 0.758 ± 0.022
10 µM, coculture fibroblast: H6076 | 0.967 ± 0.044 | 0.818 ± 0.14 | 0.825 ± 0.11 | 0.888 ± 0.04 | 0.874 ± 0.01 | 0.934 ± 0.075 | 0.913 ± 0.073 | 0.914 ± 0.08 | 0.904 ± 0.079
10 µM, coculture fibroblast: H6231 | 0.932 ± 0.079 | 0.792 ± 0.27 | 0.684 ± 0.38 | 0.663 ± 0.37 | 0.615 ± 0.39 | 0.597 ± 0.4 | 0.557 ± 0.39 | 0.537 ± 0.38 | 0.516 ± 0.37
10 µM, coculture fibroblast: HADF | 0.865 ± 0.06 | 0.73 ± 0.036 | 0.727 ± 0.034 | 0.777 ± 0.072 | 0.855 ± 0.019 | 0.735 ± 0.037 | 0.828 ± 0.1 | 0.7735 ± 0.005 | 0.805 ± 0.1
10 µM, coculture fibroblast: HCFa | 0.866 ± 0.15 | 0.948 ± 0.062 | 0.839 ± 0.2 | 0.937 ± 0.047 | 0.901 ± 0.032 | 0.889 ± 0.037 | 0.805 ± 0.098 | 0.787 ± 0.11 | 0.907 ± 0.1
10 µM, coculture fibroblast: HCPF | 0.89 ± 0.076 | 0.9377 ± 0.003 | 0.896 ± 0.087 | 0.913 ± 0.069 | 0.877 ± 0.082 | 0.873 ± 0.1 | 0.951 ± 0.043 | 0.933 ± 0.038 | 0.897 ± 0.034
10 µM, coculture fibroblast: HHSteC | 0.806 ± 0.13 | 0.713 ± 0.016 | 0.749 ± 0.072 | 0.827 ± 0.054 | 0.819 ± 0.12 | 0.771 ± 0.032 | 0.752 ± 0.052 | 0.917 ± 0.11 | 0.979 ± 0.0043
10 µM, coculture fibroblast: HMF | 0.923 ± 0.048 | 0.974 ± 0.03 | 0.974 ± 0.025 | 0.981 ± 0.012 | 0.948 ± 0.0061 | 0.9454 ± 0.0076 | 0.916 ± 0.0099 | 0.889 ± 0.021 | 0.878 ± 0.013
10 µM, coculture fibroblast: HPFa | 0.812 ± 0.12 | 0.842 ± 0.051 | 0.794 ± 0.08 | 0.765 ± 0.011 | 0.872 ± 0.075 | 0.898 ± 0.021 | 0.881 ± 0.07 | 0.894 ± 0.15 | 0.874 ± 0.12
10 µM, coculture fibroblast: HUF | 0.932 ± 0.034 | 0.887 ± 0.017 | 0.8903 ± 0.0045 | 0.841 ± 0.017 | 0.8104 ± 0.0038 | 0.7874 ± 0.0024 | 0.7785 ± 0.002 | 0.753 ± 0.016 | 0.732 ± 0.013
10 µM, coculture fibroblast: Hs27A | 0.868 ± 0.057 | 0.791 ± 0.11 | 0.782 ± 0.078 | 0.7721 ± 0.0058 | 0.8351 ± 0.0037 | 0.857 ± 0.085 | 0.776 ± 0.034 | 0.837 ± 0.028 | 0.833 ± 0.14
10 µM, coculture fibroblast: Hs343T | 0.9595 ± 0.0073 | 0.921 ± 0.03 | 0.918 ± 0.039 | 0.935 ± 0.041 | 0.904 ± 0.049 | 0.923 ± 0.064 | 0.913 ± 0.067 | 0.897 ± 0.066 | 0.904 ± 0.065
10 µM, coculture fibroblast: WS1 | 0.886 ± 0.021 | 0.9098 ± 0.0011 | 0.8921 ± 0.0038 | 0.90664 ± 0.00021 | 0.905 ± 0.0039 | 0.90751 ± 0.00064 | 0.8875 ± 0.0019 | 0.8647 ± 0.0039 | 0.839 ± 0.011
100 µM, coculture fibroblast: C12385 | 0.678 ± 0.0094 | 0.467 ± 0.058 | 0.456 ± 0.071 | 0.348 ± 0.059 | 0.301 ± 0.058 | 0.271 ± 0.051 | 0.248 ± 0.05 | 0.232 ± 0.048 | 0.219 ± 0.048
100 µM, coculture fibroblast: H6013 | 0.43 ± 0.0091 | 0.27 ± 0.029 | 0.23 ± 0.035 | 0.202 ± 0.031 | 0.175 ± 0.031 | 0.161 ± 0.031 | 0.14 ± 0.028 | 0.125 ± 0.026 | 0.1 ± 0.025
100 µM, coculture fibroblast: H6019 | 0.688 ± 0.049 | 0.409 ± 0.034 | 0.411 ± 0.025 | 0.33 ± 0.021 | 0.314 ± 0.02 | 0.295 ± 0.021 | 0.282 ± 0.02 | 0.277 ± 0.017 | 0.262 ± 0.014
100 µM, coculture fibroblast: H6076 | 0.855 ± 0.019 | 0.605 ± 0.061 | 0.529 ± 0.053 | 0.479 ± 0.032 | 0.438 ± 0.027 | 0.43 ± 0.032 | 0.419 ± 0.037 | 0.409 ± 0.04 | 0.404 ± 0.046
100 µM, coculture fibroblast: H6231 | 0.839 ± 0.081 | 0.619 ± 0.14 | 0.513 ± 0.13 | 0.513 ± 0.15 | 0.449 ± 0.16 | 0.43 ± 0.16 | 0.402 ± 0.16 | 0.384 ± 0.16 | 0.372 ± 0.16
100 µM, coculture fibroblast: HADF | 0.46 ± 0.096 | 0.254 ± 0.072 | 0.208 ± 0.07 | 0.185 ± 0.083 | 0.166 ± 0.087 | 0.158 ± 0.093 | 0.142 ± 0.096 | 0.134 ± 0.1 | 0.113 ± 0.1
100 µM, coculture fibroblast: HCFa | 0.613 ± 0.076 | 0.385 ± 0.099 | 0.323 ± 0.089 | 0.283 ± 0.086 | 0.245 ± 0.083 | 0.233 ± 0.084 | 0.212 ± 0.082 | 0.195 ± 0.084 | 0.171 ± 0.079
100 µM, coculture fibroblast: HCPF | 0.934 ± 0.058 | 0.72 ± 0.025 | 0.55 ± 0.032 | 0.509 ± 0.039 | 0.427 ± 0.042 | 0.404 ± 0.043 | 0.395 ± 0.045 | 0.359 ± 0.044 | 0.343 ± 0.046
100 µM, coculture fibroblast: HHSteC | 0.573 ± 0.036 | 0.368 ± 0.02 | 0.314 ± 0.031 | 0.274 ± 0.038 | 0.243 ± 0.037 | 0.221 ± 0.032 | 0.201 ± 0.037 | 0.182 ± 0.033 | 0.155 ± 0.031
100 µM, coculture fibroblast: HMF | 0.88 ± 0.032 | 0.574 ± 0.071 | 0.475 ± 0.086 | 0.442 ± 0.072 | 0.38 ± 0.066 | 0.355 ± 0.067 | 0.335 ± 0.063 | 0.312 ± 0.063 | 0.302 ± 0.06
100 µM, coculture fibroblast: HPFa | 0.755 ± 0.2 | 0.475 ± 0.15 | 0.399 ± 0.12 | 0.338 ± 0.1 | 0.301 ± 0.091 | 0.275 ± 0.088 | 0.246 ± 0.084 | 0.229 ± 0.075 | 0.197 ± 0.071
100 µM, coculture fibroblast: HUF | 0.698 ± 0.18 | 0.483 ± 0.2 | 0.423 ± 0.16 | 0.319 ± 0.12 | 0.273 ± 0.11 | 0.244 ± 0.1 | 0.219 ± 0.098 | 0.199 ± 0.093 | 0.183 ± 0.086
100 µM, coculture fibroblast: Hs27A | 0.501 ± 0.024 | 0.316 ± 0.0089 | 0.229 ± 0.0063 | 0.204 ± 0.013 | 0.178 ± 0.016 | 0.17 ± 0.02 | 0.15 ± 0.02 | 0.143 ± 0.022 | 0.114 ± 0.019
100 µM, coculture fibroblast: Hs343T | 0.905 ± 0.054 | 0.463 ± 0.099 | 0.398 ± 0.058 | 0.368 ± 0.04 | 0.314 ± 0.031 | 0.289 ± 0.029 | 0.273 ± 0.03 | 0.252 ± 0.026 | 0.244 ± 0.025
100 µM, coculture fibroblast: WS1 | 0.488 ± 0.044 | 0.296 ± 0.028 | 0.279 ± 0.028 | 0.203 ± 0.03 | 0.166 ± 0.027 | 0.15 ± 0.022 | 0.134 ± 0.022 | 0.123 ± 0.021 | 0.111 ± 0.021

± gives the standard deviation of the averaged measurements. The reference is the same well before dosing, and untreated signal decays as well.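 Labels refer to human fibroblasts, largely primary: uterine (C12385, HUF), lung (H6013), bone (Hs27A), adrenal (HADF), skin (WS1), plus mammary HMF and breast cancer-associated Hs343T. Cancer lines are basal-like or mesenchymal-like triple-negative breast cancer. The paper counts as hits responses shifting over 3x the replicate standard deviation. The tissue of the other fibroblasts is not given here.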
